{"source": "PubChem BioAssay AID651640", "about": "(Broad Institute, 2012)", "note": "Among all 350,000 compounds or so, about 6,000 (1.7%) were called active. Inconclusive means that the source gave no clear call. Such entries were picked first, then a sample of the others. No stated cut-off is given here; in the data, active means CPE inhibition above about 20% (passing the limit was not always enough); inconclusive means no clear call, values can overlap the other calls; tested in BHK-21 cells. A structure can be active in one record and inactive in another.", "data": [{"experiment": "protection of cells from dengue 2 killing – plate reader, single concentration, primary screen (AID 651640);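 further: 0% = median of neutral control wells and 100% = median of positive control wells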", "settings": "DENV2-infected cells, cytopathic effect rescue, at 9.99 µM, active compounds read high", "values": [{"smiles": "CN(C)C(=O)c1cccc(-c2ccc([C@H]3[C@H](CO)N4CCCCN(C(=O)C5CCCC5)C[C@@H]34)cc2)c1", "CPE inhibition": "inconclusive: 38.5%"}, {"smiles": "CCOc1ccc(-c2cc(CCCC(=O)NCc3ccco3)no2)cc1", "CPE inhibition": "inconclusive: 38.4%"}, {"smiles": "Cc1noc(C)c1NC(=O)N(C)C[C@@H]1OCCCC[C@H](C)Oc2ccc(NS(=O)(=O)c3ccc(Cl)cc3)cc2C(=O)N([C@H](C)CO)C[C@@H]1C", "CPE inhibition": "active: 32.2%"}, {"smiles": "CCN(c1ccccc1)S(=O)(=O)c1ccc(OC)c(NC(=O)c2cc(Cl)ccn2)c1", "CPE inhibition": "inconclusive: 23%"}, {"smiles": "C[C@H](CO)N1C[C@H](C)[C@@H](CN(C)Cc2ccccc2)Oc2ccc(NC(=O)CCN3CCOCC3)cc2C1=O", "CPE inhibition": "inactive: 14.2%"}, {"smiles": "CCCSc1nnc(CSc2ncccn2)n1C", "CPE inhibition": "inactive: -0.514%"}, {"smiles": "COc1ccc(O)cc1", "CPE inhibition": "inconclusive: 63%"}, {"smiles": "COC(=O)c1sc2nc(C)nc(SCC(=O)N3CCC(C(=O)O)CC3)c2c1C", "CPE inhibition": "inconclusive: 22.8%"}, {"smiles": "CC(=O)c1c(C)[nH]c(C(=O)OCC(=O)NCc2ccccc2)c1C", "CPE inhibition": "inconclusive: 24.7%"}, {"smiles": "COC(=O)c1ccc(NC(=O)c2c(C(=O)Nc3ccccc3)sc3nc(C)cc(=O)n23)cc1", "CPE inhibition": "inconclusive: 26.7%"}, {"smiles": "CCC(=O)N1CC2(C1)CN(CC1CCOCC1)[C@H](CO)c1c2c2ccc(OC)cc2n1C", "CPE inhibition": "inconclusive: 20.2%"}, {"smiles": "Cc1nc(NC(=O)CN2CCN(c3cccc(Cl)c3)CC2)sc1C(=O)N(C)C", "CPE inhibition": "inconclusive: 27.8%"}, {"smiles": "CC(=O)NC(Cc1ccccc1)C(=O)O", "note": "(configuration not stated)", "CPE inhibition": "active: 56.3%"}, {"smiles": "CCOC(=O)c1ccc(S(=O)(=O)N2CCN(C(=O)CSc3nc4ccccc4o3)CC2)cc1", "CPE inhibition": "active: 29.2%"}, {"smiles": "O=C(N[C@H]1CC[C@H](CCNC(=O)C2CCC2)O[C@@H]1CO)c1ccccn1", "CPE inhibition": "inactive: 0.554%"}, {"smiles": "CCc1ccc([C@@H]2CC=C(C(=O)O)[C@H](c3ccc(C(C)(C)C)cc3)N2S(=O)(=O)c2ccc(C)cc2)cc1", "CPE inhibition": "active: 48.3%"}, {"smiles": "c1cc(-c2ccc(C3[C@H]4CNC[C@@H]3N4CC3CCCCC3)cc2)ccn1", "note": "(some centres not stated)", "CPE inhibition": "active: 45.9%"}, {"smiles": "COc1ccc(Cl)cc1NC(=O)c1cccc(NC(=O)CCC(=O)O)c1", "CPE inhibition": "inconclusive: 21%"}, {"smiles": "CCCC#Cc1ccc([C@H]2[C@@H](CO)N3C(=O)CN(C(=O)NC4CCCC4)C[C@H]23)cc1", "CPE inhibition": "inactive: -1.94%"}, {"smiles": "NS(=O)(=O)c1ccc(CCNC(=O)c2ccc3c(=O)n4c(nc3c2)CCCCC4)cc1", "CPE inhibition": "inconclusive: 58.9%"}, {"smiles": "CN(C)/C=C/C(=O)c1cnc(-c2ccccn2)s1", "CPE inhibition": "inconclusive: 21.2%"}, {"smiles": "COc1ccc(-c2ccc3c(c2)[C@@H]2[C@@H](CCN2S(=O)(=O)c2ccc(F)cc2)[C@H](CO)N3C)cc1", "CPE inhibition": "inactive: -3.11%"}, {"smiles": "Cc1cc(C)c2nc(C)cc(Nc3ccc(C(=O)NCCO)cc3)c2c1", "CPE inhibition": "inactive: -3.19%"}, {"smiles": "CN1C(=O)c2cc(NC(=O)NCc3ccccc3)ccc2OC[C@@H]2O[C@@H](CC(=O)O)CC[C@@H]21", "CPE inhibition": "inconclusive: 82.5%"}, {"smiles": "CN1C(=O)c2cc(NC(=O)Nc3cccc(Cl)c3)ccc2OC[C@@H]2O[C@@H](CC(=O)O)CC[C@H]21", "CPE inhibition": "inconclusive: 93%"}, {"smiles": "CCC(=O)N1CC2(C1)[C@@H](c1ccc(-c3cccc(C)c3)cc1)[C@@H](CO)N2S(C)(=O)=O", "CPE inhibition": "active: 27.2%"}, {"smiles": "Cc1cccc(N2CCN(C(C(=O)NCc3ccccc3)c3ccc(F)cc3)CC2)c1C", "note": "(configuration not stated)", "CPE inhibition": "active: 59.5%"}, {"smiles": "COC(=O)C1=C(C)N(C)C(=NCc2ccc(OC)cc2)NC1c1ccc(F)cc1", "note": "(configuration not stated)", "CPE inhibition": "active: 50.5%"}, {"smiles": "CCC(C)(C)NC(=O)C(c1cccn1C)N(C(=O)Cn1nnc2ccccc21)c1ccc(NC(C)=O)cc1", "note": "(configuration not stated)", "CPE inhibition": "inconclusive: 22.6%"}, {"smiles": "CO[C@@H]1CN(C)C(=O)c2cc(NC(=O)CC(F)(F)F)ccc2OC[C@H](C)N(C(=O)C2CCOCC2)C[C@@H]1C", "CPE inhibition": "active: 26.4%"}, {"smiles": "CNC[C@H]1OCCCC[C@H](C)Oc2ccc(NS(=O)(=O)c3ccccc3)cc2C(=O)N([C@@H](C)CO)C[C@H]1C", "CPE inhibition": "inconclusive: 71.9%"}, {"smiles": "COCC#Cc1ccc2c(c1)O[C@@H](CN(C)C(=O)Nc1ccc(OC)cc1)[C@H](C)CN([C@@H](C)CO)S2(=O)=O", "CPE inhibition": "inconclusive: 57.8%"}, {"smiles": "O=C(CCSc1nnc(-c2ccccc2)o1)N1CCOCC1", "CPE inhibition": "active: 26.8%"}, {"smiles": "C[C@@H]1CN([C@@H](C)CO)C(=O)c2cccc(NS(C)(=O)=O)c2O[C@H]1CN(C)Cc1ccc(C(=O)O)cc1", "CPE inhibition": "inconclusive: 50.6%"}, {"smiles": "C[C@H](CO)N1C[C@H](C)[C@H](CN(C)S(C)(=O)=O)Oc2ccc(NS(C)(=O)=O)cc2C1=O", "CPE inhibition": "inactive: -0.725%"}, {"smiles": "Cc1noc(C)c1NC(=O)N(C)C[C@H]1Oc2c(NS(=O)(=O)c3cn(C)cn3)cccc2C(=O)N([C@H](C)CO)C[C@H]1C", "CPE inhibition": "inactive: -5.45%"}, {"smiles": "CCCCN1CC(=O)N2[C@H](c3ccc(Cl)cc3)[C@@H]3C(=O)N(CC)C(=O)[C@@H]3[C@]2(Cc2ccccc2)C1=O", "CPE inhibition": "inactive: -7.75%"}, {"smiles": "COc1ccc(CC2(CO)CCN(Cc3ccc4nsnc4c3)CC2)cc1", "CPE inhibition": "inactive: 3.61%"}, {"smiles": "COc1ccc(N2CCN(C(c3cccs3)C(C)NC(=O)C(=O)N3CCOCC3)CC2)cc1", "note": "(configuration not stated)", "CPE inhibition": "inconclusive: 22.5%"}, {"smiles": "Cc1ccc(S(=O)(=O)N(C)C[C@@H]2OCCCC[C@H](C)Oc3ccc(NS(=O)(=O)c4cccs4)cc3C(=O)N([C@H](C)CO)C[C@@H]2C)cc1", "CPE inhibition": "inconclusive: 44.2%"}, {"smiles": "COc1cccc(S(=O)(=O)Nc2ccc3c(c2)OC[C@@H](C)N(Cc2ccccc2F)C[C@@H](C)[C@@H](OC)CN(C)C3=O)c1", "CPE inhibition": "inconclusive: 28.6%"}, {"smiles": "C[C@H]1CN([C@@H](C)CO)C(=O)c2cc(N(C)C)ccc2O[C@H]1CN(C)S(=O)(=O)c1ccccc1", "CPE inhibition": "active: 31.4%"}, {"smiles": "CCOC(=O)C1=CCC2C(=O)N(C3CCCCC3)C(=O)C12", "note": "(configuration not stated)", "CPE inhibition": "inconclusive: 48.4%"}, {"smiles": "CC(=O)NC(CC(=O)NCCc1ccccc1)c1ccccc1", "note": "(configuration not stated)", "CPE inhibition": "inactive: 5.14%"}, {"smiles": "CCCC[C@@H](O)C1=C(C)Cn2c(=O)n(-c3ccccc3)c(=O)n2[C@H]1CO", "CPE inhibition": "inactive: -7.47%"}, {"smiles": "COc1ccc(Cc2nnc3sc(SCC(=O)Nc4ccccc4)nn3c2=O)cc1OC", "CPE inhibition": "inconclusive: 25.1%"}, {"smiles": "COc1ccc(C(=O)N2CCCC(CNC(=O)c3ccccc3Cl)C2)o1", "note": "(configuration not stated)", "CPE inhibition": "inconclusive: 30.2%"}, {"smiles": "CCN(C[C@H]1N[C@@](CC)(C(=O)OC)[C@H]2C(=O)N(C)C(=O)[C@@H]12)S(=O)(=O)c1ccc(C(F)(F)F)cc1", "CPE inhibition": "active: 52.1%"}, {"smiles": "CC(C)NC(=S)N/N=C1\\CCCc2ccccc21", "CPE inhibition": "inactive: -3.23%"}, {"smiles": "Cc1noc(C)c1NC(=O)N(C)C[C@H]1Oc2c(NS(=O)(=O)c3cccs3)cccc2C(=O)N([C@@H](C)CO)C[C@@H]1C", "CPE inhibition": "inconclusive: 20.1%"}, {"smiles": "C[C@@H]1CN([C@H](C)CO)C(=O)c2cccc(NS(=O)(=O)c3cccs3)c2O[C@H]1CN(C)Cc1ccc(Cl)c(Cl)c1", "CPE inhibition": "active: 41.1%"}, {"smiles": "N#C/C(=C\\c1ccc(N2CCOCC2)o1)C(=O)NC1CCCCC1", "CPE inhibition": "inconclusive: 24.1%"}, {"smiles": "CCC1(CC)C(=O)N(c2ccccc2)C(=N)N(c2ccccc2)C1=O", "CPE inhibition": "inconclusive: 43.4%"}, {"smiles": "CCCCNc1c(-c2cccc(Sc3ccc(OC)cc3)c2)nc2ccccn12", "CPE inhibition": "inactive: -17.2%"}, {"smiles": "CCCNC(=O)N1[C@@H](CO)[C@@H]2c3ccccc3N(C(=O)Nc3ccc(F)cc3)C[C@@H]21", "CPE inhibition": "inconclusive: 62.4%"}, {"smiles": "Cc1noc(C)c1NC(=O)N[C@@H]1CC[C@@H](CC(=O)NCc2ccc(Cl)c(Cl)c2)O[C@H]1CO", "CPE inhibition": "inactive: 3.12%"}, {"smiles": "CN(C)CCCNc1nc2cc(-c3ccc(F)cc3)sc2c(=O)n1C", "CPE inhibition": "inconclusive: 37.8%"}, {"smiles": "COC(=O)[C@@H]1[C@@H](CO)[C@@H]2Cn3c(ccc(-c4ccncc4)c3=O)[C@@H]2N1CC1CCCCC1", "CPE inhibition": "inactive: -3.97%"}, {"smiles": "C[C@@H]1CN([C@H](C)CO)C(=O)c2cc(NC(=O)Nc3ccc4c(c3)OCO4)ccc2O[C@@H](C)CCCCO[C@H]1CN(C)Cc1ccc(C(F)(F)F)cc1", "CPE inhibition": "inactive: 2.58%"}, {"smiles": "CN1C(=O)c2cc(NC(=O)c3ccno3)ccc2OC[C@H]2O[C@@H](CC(=O)NC3Cc4ccccc4C3)CC[C@@H]21", "CPE inhibition": "active: 53.4%"}, {"smiles": "O=C(CN1CCN(Cc2ccccc2)C1=O)NCCCN1CCOCC1", "CPE inhibition": "inconclusive: 34.5%"}, {"smiles": "Cc1ccc(S(=O)(=O)Nc2ccc3c(c2)CC(=O)N([C@H](C)CO)C[C@@H](C)[C@H](CN(C)S(=O)(=O)c2ccc(F)cc2)O3)cc1", "CPE inhibition": "inconclusive: 62.2%"}, {"smiles": "Cc1noc(C)c1NC(=O)Nc1cccc2c1O[C@H](CN(C)Cc1ccc(C(F)(F)F)cc1)[C@H](C)CN([C@@H](C)CO)C2=O", "CPE inhibition": "active: 20.8%"}, {"smiles": "COc1cc(C(=O)OCC(=O)N2CCCCC2C)ccc1OCc1c(C)noc1C", "note": "(configuration not stated)", "CPE inhibition": "inactive: 0.489%"}, {"smiles": "Fc1ccccc1CSc1ccc(-c2ccco2)nn1", "CPE inhibition": "inactive: -7.05%"}, {"smiles": "COc1ccc2c3c(n(C)c2c1)[C@@H](CO)N(C(=O)CC1CC1)CC31CN(C(=O)C2CCC2)C1", "CPE inhibition": "inactive: 9.5%"}, {"smiles": "O=C(N[C@@H]1CC[C@H](CCn2cc(C3(O)CCCC3)nn2)O[C@H]1CO)C1CCCCC1", "CPE inhibition": "inactive: 0.465%"}, {"smiles": "CN1C(=O)c2cc(NC(=O)c3cccs3)ccc2OC[C@H]2O[C@H](CC(=O)NCC(F)(F)F)CC[C@H]21", "CPE inhibition": "inactive: 0.361%"}, {"smiles": "COc1ccc(NC(=O)N[C@H]2CC[C@H](CCNC(=O)CCN3CCCCC3)O[C@@H]2CO)cc1", "CPE inhibition": "inactive: 11.1%"}, {"smiles": "O=C(CCNC(=O)c1ccccc1Cl)Nc1cc(C(F)(F)F)ccc1N1CCCC1", "CPE inhibition": "inconclusive: 43%"}, {"smiles": "C[C@H]1C(=O)N(C)CCN1Cc1cn(C)nc1-c1ccc(Oc2ccccc2)cc1", "CPE inhibition": "inactive: 0.946%"}, {"smiles": "CCCCCCC(NC(=O)c1ccc(C)cc1)C(=O)O", "note": "(configuration not stated)", "CPE inhibition": "inconclusive: 64.3%"}]}]}
